Data from PubChem BioAssay AID1487 (National Center for Advancing Translational Sciences (NCATS), 2009).
The list shows a part of the results. The main result of the screen is listed elsewhere. These columns were measured beside it and carry no call. Most of these compounds were active or inconclusive in the main read-out, so they are no random draw. Words in brackets tell the shape of the fitted curve; partial curves, single points and poor fits give uncertain potencies.

Test: qHTS Assay for Modulators of Lamin A Splicing
Details: HeLa LMNA splicing GFP/RFP minigene ratio, 48 h
Method in brief: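 S3 HeLa cells stably expressing lamin A-EGFP splicing minigene plus DsRed2, 600 cells/well, 48 h compound exposure at 37C. Laser-scanning cytometry; analysed as GFP (500-530 nm)/RFP (575-640 nm) total intensity ratio; 0.5% DMSO vehicle.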

[1] = measured here: RFP viability control channel
[2] = measured here: GFP splicing reporter channel

O=C(Nc1cccc(-c2nnn(CC(=O)N3CCc4ccccc4C3)n2)c1)C1CCC1
AC50 [1]: 11.2 µM [rising, single point]

COc1ccc(-c2ccc(NS(=O)(=O)c3ccc(OC)c(OC)c3)cc2)nn1
AC50 [2]: 35.5 µM [falling, partial curve, poor fit]

Cc1scc2c1N(C(=O)CN1CCN(C)CC1)c1ccccc1NC2=O
AC50 [2]: 17.8 µM [falling, single point]
AC50 [1]: 14.1 µM [falling, single point]

CCOc1ccc(N(C)S(=O)(=O)c2ccc3[nH]cc(C(=O)NCCOC)c(=O)c3c2)cc1
AC50 [2]: 0.02 µM [rising, full curve, poor fit]
AC50 [1]: 11.2 µM [rising, partial curve, poor fit]

COc1cccc(NS(=O)(=O)c2ccc(S(=O)(=O)N3CCOCC3)cc2)c1
AC50 [1]: 0.00891 µM [rising, full curve, poor fit]

COc1cccc(N2CCN(c3ncnc4c3cnn4-c3ccc(C)cc3C)CC2)c1
AC50 [1]: 3.55 µM [rising, partial curve]

Cc1csc(NC(=O)c2cc(-c3ccccc3)nc3ccccc23)n1
AC50 [1]: 22.4 µM [rising, single point]

CCN(CC)c1nc(Oc2ccc(=O)[nH]n2)nc(N2CCOCC2)n1
AC50 [2]: 10 µM [rising, partial curve, poor fit]

Cn1c(N/N=C\c2cccc(O)c2)cc(=O)n(C)c1=O
AC50 [2]: 12.6 µM [falling, partial curve, poor fit]

CCOC(=O)N1CCC(NC(=O)c2ccc(OC)c(CN3CC(=O)N4CCCC4C3=O)c2)CC1 (stereo unspecified)
AC50 [1]: 3.55 µM [rising, single point]

O=C(NNC(=O)C1COc2ccccc2O1)c1cccc([N+](=O)[O-])c1 (stereo unspecified)
AC50 [2]: 35.5 µM [rising, partial curve, poor fit]

Cc1noc(NC(=O)c2cccc(C(F)(F)F)c2)c1Cl
AC50 [2]: 0.141 µM [falling, full curve, poor fit]
AC50 [1]: 0.178 µM [falling, full curve, poor fit]

CN(C)c1ccc(C(CNC(=O)c2ccccc2)N2CCc3ccccc32)cc1 (stereo unspecified)
AC50 [2]: 35.5 µM [falling, single point]

Cc1cc(=O)oc(C)c1C(=O)OC(C(=O)c1ccccc1)c1ccccc1 (stereo unspecified)
AC50 [2]: 17.8 µM [rising, single point]
AC50 [1]: 25.1 µM [rising, single point]

COc1cccc(Cn2cnc3c(NS(=O)(=O)c4cc(Cl)ccc4Cl)c(C)c(C)cc32)c1
AC50 [1]: 12.6 µM [rising, single point]

O=C(Cn1c(SCC(=O)Nc2ccc(F)cc2)nc2ccccc21)NCc1ccc(F)cc1
AC50 [1]: 14.1 µM [falling, single point]

Cc1cc(Nc2ccccc2)nc(NCc2ccccc2)n1
AC50 [1]: 11.2 µM [rising, partial curve]

CC(NC(=O)CCl)c1ccc(Cl)c(Cl)c1 (stereo unspecified)
AC50 [1]: 3.55 µM [falling, partial curve, poor fit]

O=c1c2cc(NC(=S)NCc3cccnc3)ccc2nc2n1CCCCC2
AC50 [2]: 4.47 µM [falling, partial curve, poor fit]
AC50 [1]: 0.398 µM [falling, full curve, poor fit]

O=C(N/N=C/c1ccccn1)c1ccc(N/N=C/c2ccccn2)cc1
AC50 [1]: 10 µM [rising, partial curve]

O=c1c([N+](=O)[O-])c(N2CCCC2)c2ccccc2n1-c1ccccc1
AC50 [1]: 31.6 µM [falling, partial curve]

Cc1ccc(Cl)cc1NC(=O)c1cnc(N2CCCCC2)c2ccccc12
AC50 [1]: 10 µM [falling, partial curve, poor fit]

CCCC(=O)NCC1(N(C)C)CCCCC1
AC50 [1]: 0.00447 µM [falling, full curve, poor fit]

CC(=O)Oc1ccc(C(=O)[C@H]2[C@H]3C(=O)N(c4ccc(C)cc4)C(=O)[C@H]3[C@@H]3C=CC=NN32)cc1
AC50 [2]: 0.126 µM [rising, full curve, poor fit]
AC50 [1]: 0.178 µM [rising, full curve, poor fit]

CCCCSc1cnn(-c2ccccc2)c(=O)c1SCCCC
AC50 [2]: 15.8 µM [rising, single point]
AC50 [1]: 31.6 µM [rising, single point]

CCOC(=O)CN(C(=O)CSc1nnc(-c2ccc(OC)c(OC)c2)o1)c1ccccc1
AC50 [1]: 11.2 µM [rising, partial curve, poor fit]

Cc1ccc(S(=O)(=O)CCSc2nc(C)cc(C(F)(F)F)c2C#N)cc1
AC50 [1]: 35.5 µM [falling, single point]

O=C(CN1CCOCC1)N/N=C/c1ccco1
AC50 [2]: 0.0224 µM [falling, full curve, poor fit]
AC50 [1]: 0.631 µM [falling, full curve, poor fit]

COC(=O)C1=CN(CC2CCCO2)C=C(C(=O)OC)C1c1cc(OC)c(OC)c(OC)c1 (stereo unspecified)
AC50 [2]: 11.2 µM [rising, single point]

CCN1CCN(c2ncc3c(n2)CCN(Cc2cc(F)cc(F)c2)C3)CC1
AC50 [1]: 1.26 µM [rising, full curve, poor fit]

O=C(N[C@@H](Cc1ccccc1)C(=O)CCl)OCc1ccccc1
AC50 [2]: 2 µM [falling, full curve]
AC50 [1]: 1.78 µM [falling, full curve]

COc1ccc(C(=O)/C=C/C(=O)N(Cc2ccccc2OC)C(C(=O)NC2CCCCC2)c2ccncc2)c(O)c1 (stereo unspecified)
AC50 [1]: 12.6 µM [rising, partial curve, poor fit]

CCOC(=O)c1c(C)sc(-c2c(-c3cccc(Cl)c3)[nH]c3c2c(=O)n(C)c(=O)n3C)c1O
AC50 [2]: 6.31 µM [rising, single point]
AC50 [1]: 7.08 µM [falling, single point]

COc1ccc(NC(=O)C2=C(C)Nc3ncnn3C2c2ccc[nH]2)cc1 (stereo unspecified)
AC50 [1]: 3.98 µM [rising, full curve, poor fit]

CCNc1ncc2nc(CCc3ccccc3)c(=O)n(C[C@H]3CCCO3)c2n1
AC50 [2]: 17.8 µM [falling, partial curve]
AC50 [1]: 12.6 µM [falling, partial curve]
